# Measurements taken from PubChem BioAssay AID1487 (National Center for Advancing Translational Sciences (NCATS), 2009).
# The other results are listed elsewhere or left out. The main result of the screen is listed elsewhere. These columns were measured beside it and carry no call. The list favours compounds with an active or inconclusive main result. Words in brackets tell the shape of the fitted curve; partial curves, single points and poor fits give uncertain potencies.
# Experiment: qHTS Assay for Modulators of Lamin A Splicing
# Conditions: HeLa LMNA splicing GFP/RFP minigene ratio, 48 h
# Procedure, shortened: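 S3 HeLa stable clones carrying a lamin A-EGFP splicing minigene plus DsRed2 were seeded at 600 cells/well in Opti-MEM with 2% FBS, pin-dosed and incubated 48 h at 37°C. Acumen cytometry (488 nm) gave the GFP/RFP total-intensity ratio.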
# [1] = measured here: GFP splicing reporter channel
# [2] = measured here: RFP viability control channel
Structure (SMILES),AC50 [1],AC50 [2]
S=C1SCN(Cc2ccccn2)CN1Cc1ccco1,"3.98 µM [falling, full curve]","4.47 µM [falling, full curve]"
CCCc1nc2oc3c(N4CCNCC4)ncnc3c2c2c1CCCC2,"35.5 µM [falling, single point]","35.5 µM [falling, partial curve, poor fit]"
COC(=O)c1ccccc1NC(=O)C1CCCN(S(=O)(=O)c2ccc(OC)cc2)C1 (centres undefined),,"35.5 µM [rising, single point]"
O=Cc1ccc(Oc2ncccn2)cc1,,"0.00398 µM [rising, full curve, poor fit]"
CCOc1ccccc1CNC(=O)c1cc2cc(S(=O)(=O)N3CCCCC3)ccc2n1C,"0.501 µM [rising, single point]",
CC(Sc1ccc(Cl)cc1)C(=O)Nc1ccccc1-c1ccccc1 (centres undefined),,"31.6 µM [rising, single point]"
O=C1CC(SC(=Nc2ccccc2)Nc2ccccc2)C(=O)N1c1ccc(Cl)c(Cl)c1 (centres undefined),"15.8 µM [rising, single point]","22.4 µM [rising, single point]"
CC(=O)Nc1ccc(NC(=O)CCNS(=O)(=O)c2cccc3nsnc23)cc1,"20 µM [falling, partial curve, poor fit]",
CN(C(=O)c1c(Br)cnn1C)C12CC3CC(CC(C3)C1)C2,"3.55 µM [rising, single point]","3.55 µM [rising, full curve, poor fit]"
COc1cc(OC)c(-c2nnc(-c3ccc(OC)c(OC)c3OC)o2)cc1OC,,"17.8 µM [rising, single point]"
O=C(/C=C/c1ccc(Br)cc1)c1ccco1,"25.1 µM [falling, partial curve]","22.4 µM [falling, single point]"
O=C(Nc1cc(C(F)(F)F)ccc1Cl)C(NCc1ccccc1)c1ccccc1 (centres undefined),"35.5 µM [rising, single point]",
CCOC(=O)c1oc2cc(O)c(CC)cc2c(=O)c1-c1ccc2c(c1)OCCO2,,"20 µM [rising, partial curve, poor fit]"
CCOc1cccc(CC(=O)N2CCc3c([nH]c4ccccc34)C2c2ccc(F)cc2)c1OCC (centres undefined),"0.0251 µM [rising, full curve]",
CC1CC(Nc2ccccc2)c2ccccc2N1C(=O)c1ccncc1 (centres undefined),"3.98 µM [falling, full curve]","6.31 µM [falling, full curve]"
CN1CCN(CCOc2ccc(Cl)c(Cl)c2)CC1,"5.01 µM [rising, partial curve]",
CCOc1ccccc1CNC(=O)c1ccc(Sc2ccc(Cl)cc2)c(NC(C)=O)c1,"0.158 µM [rising, full curve, poor fit]","22.4 µM [rising, single point]"
COc1cccc(-n2c(=O)c3c(C)c(C(=O)N(C)C)sc3n(CC(=O)NCCc3ccc(OC)c(OC)c3)c2=O)c1,,"1.26 µM [falling, partial curve]"
O=C(NC1CC2CCCC(C1)N2Cc1ccccc1)C1CCCCC1 (centres undefined),,"2.51 µM [falling, partial curve, poor fit]"
CC1CCCN(Cc2c(O)ccc3c(=O)c(-c4nc5ccccc5s4)c(N)oc23)C1 (centres undefined),"35.5 µM [falling, single point]",
O=C(/C=C/c1ccc2c(c1)OCO2)N1CCN(c2ccccc2F)CC1,"17.8 µM [rising, partial curve, poor fit]","15.8 µM [rising, single point]"
O=C1c2ccccc2C2=Nc3ccccc3SC(c3ccc(Cl)cc3)C12 (centres undefined),"12.6 µM [rising, partial curve, poor fit]","14.1 µM [rising, partial curve]"
Cc1cc(-c2nnc(CCC(=O)NCc3ccc(F)c(F)c3)o2)no1,"5.01 µM [falling, single point]","35.5 µM [falling, single point]"
OCc1ccc(-c2nn(Cc3ccccc3)c3ccccc23)o1,"10 µM [falling, partial curve]","11.2 µM [falling, partial curve]"
COc1ccc(Cc2nnc(NC(=O)c3cccc([N+](=O)[O-])c3)s2)cc1,,"0.562 µM [rising, full curve, poor fit]"
Cn1c(=O)cc(OCCCC(=O)N2CCCCC2)c2ccccc21,,"1 µM [rising, partial curve]"
CC(C)C(C)NC(=O)COC(=O)c1cccc(C(=O)OCC(=O)NC(C)C(C)C)n1 (centres undefined),"4.47 µM [falling, full curve]",
CSCC[C@H](NC(=O)C1CCN(S(=O)(=O)c2ccc(C)cc2)CC1)C(=O)NC1CCS(=O)(=O)C1 (some centres undefined),,"0.316 µM [falling, full curve, poor fit]"

# 2 of the compounds above, tab-delimited.
Structure (SMILES)	AC50 [1]	AC50 [2]
CCOC(=O)c1oc2cc(O)c(CC)cc2c(=O)c1-c1ccc2c(c1)OCCO2		20 µM [rising, partial curve, poor fit]
O=C1c2ccccc2C2=Nc3ccccc3SC(c3ccc(Cl)cc3)C12 (centres undefined)	12.6 µM [rising, partial curve, poor fit]	14.1 µM [rising, partial curve]

# The list goes on:

Structure (SMILES),AC50 [1],AC50 [2]
O=C(N/N=C/c1cc([N+](=O)[O-])ccc1O)c1cc(-c2ccccc2)nc2ccccc12,,"10 µM [rising, partial curve]"
CC(=O)NC(=S)Nc1cc(C(F)(F)F)ccc1N1CCOCC1,,"14.1 µM [rising, single point]"
COc1ccccc1-n1cc(CN2CCCC(CO)(Cc3cccc(Cl)c3)C2)cn1 (centres undefined),"0.891 µM [falling, full curve, poor fit]",
N#Cc1ccsc1NC(=O)CN1CCN(S(=O)(=O)c2ccc3ccccc3c2)CC1,"25.1 µM [rising, single point]","1.26 µM [rising, partial curve]"
O=S(=O)(Nc1ccc(S(=O)(=O)Nc2nccs2)cc1)c1ccc2c(c1)OCCO2,,"15.8 µM [rising, single point]"
COc1ccc([N+](=O)[O-])cc1NC(=O)Cc1ccc(C)cc1,,"8.91 µM [rising, partial curve, poor fit]"
Cc1ccc(N=C2NC(=O)C(CC(=O)NCc3ccccc3)S2)cc1C (centres undefined),"15.8 µM [rising, partial curve, poor fit]","0.224 µM [rising, full curve, poor fit]"
CCc1cccc(CC)c1-n1c(SCC(=O)N2CCc3ccccc3C2)nnc1-c1cccnc1,"31.6 µM [rising, single point]",
O=C(c1ccco1)N1CCN(C(=O)c2cc3sccc3n2Cc2ccccc2)CC1,,"14.1 µM [rising, partial curve]"
CN(C)S(=O)(=O)NCCNc1ccc(C(F)(F)F)cc1[N+](=O)[O-],"4.47 µM [falling, partial curve]","5.62 µM [falling, partial curve]"
O=C1Nc2c(Br)cc(Br)cc2C1(O)N1CCOCC1 (centres undefined),"28.2 µM [falling, single point]","25.1 µM [falling, single point]"
COc1cccc(N2C(=O)CC(c3c[nH]c4ccccc34)C2=O)c1 (centres undefined),"4.47 µM [rising, partial curve]","5.62 µM [rising, single point]"
O=C(Cc1ccc(-n2cccc2)cc1)NC1CCCCCC1,,"11.2 µM [rising, partial curve]"
CC12CCCCN1CCCc1c2[nH]c2ccccc12 (centres undefined),"0.794 µM [rising, full curve, poor fit]","0.251 µM [falling, full curve, poor fit]"
COC(=O)c1ccc(C2c3c(oc4ccc(F)cc4c3=O)C(=O)N2CCO)cc1 (centres undefined),,"25.1 µM [rising, single point]"
O=C(NC1=NCCS1)c1sc2cc(Cl)cc(Cl)c2c1Cl,,"0.0141 µM [rising, full curve, poor fit]"
CCOC(=O)c1c(NC(=O)C2=C(C)NC(=S)NC2c2ccc(F)cc2F)sc(C)c1C (centres undefined),,"15.8 µM [rising, single point]"
Cc1cccc(NC(=O)CSc2nc3ccc(NC(=O)c4ccco4)cc3s2)c1,"35.5 µM [falling, partial curve, poor fit]",
CCN(CC)c1ccc(C(=O)OCC(=O)Nc2ccccc2-c2ccccc2)cc1,"14.1 µM [rising, partial curve]","17.8 µM [rising, partial curve]"
COC(CNC(=O)c1ccc(N2CCc3ccccc32)c([N+](=O)[O-])c1)OC,,"15.8 µM [rising, single point]"
CCc1ccc(NC(=O)CSc2nc3n[nH]c(C)c3c(=N)n2-c2ccccc2C)cc1,"35.5 µM [falling, single point]","31.6 µM [falling, single point]"
Cc1ccc(NS(=O)(=O)c2cc(OCC(N)=O)c(C)cc2Cl)cc1C,,"14.1 µM [rising, single point]"
COc1ccc(/C=N/NC(=O)c2cc(C(C)(C)C)[nH]n2)cc1COc1ccc(F)cc1F,,"7.94 µM [rising, partial curve]"
CC1CCc2cc(F)ccc2N1S(=O)(=O)c1ccc(Cl)nc1 (centres undefined),"7.08 µM [falling, partial curve, poor fit]",
Cc1ccc(NC(=O)COC(=O)/C=C/c2ccccc2)cc1S(=O)(=O)N1CCOCC1,"3.98 µM [falling, partial curve, poor fit]",
N#Cc1c(NC(=O)c2cc3nc(-c4ccc(Br)cc4)cc(C(F)(F)F)n3n2)sc2c1CCCC2,,"6.31 µM [falling, partial curve]"
CC(C)(C)OC(=O)NCCc1nnc(S(=O)(=O)Cc2ccc(Cl)cc2Cl)o1,"15.8 µM [falling, single point]",
